Laboratory results as given in patent publication US5081242A, “6-benzoxazinyl- and 6-benzothiazinyl 2,3,4,5-tetrahydropyridazin-3-ones” (Ortho Pharmaceutical Corporation, priority 1991, dated 1992).
pIC50: −log10 of the molar value. At least one compound was matched to its structure with a doubt left.

Biological target: cyclic nucleotide phosphodiesterase
Assay: Phosphodiesterase inhibitory activity (cyclic AMP hydrolysis)
Format: biochemical
Settings: read-out: IC50 (50% inhibition of cyclic nucleotide phosphodiesterase activity); cyclic AMP 0.10-1.0 μM, pH 7.4

Cc1cc2c(c(C3=NNC(=O)CC3C)c1)OCCN2 (stereo not shown) [Example 42, 6-(3,4-Dihydro-6-methyl-1,4(2H)-benzoxazin-8-yl)-2,3,4,5-tetrahydro-5-methylpyridazin-3-one]
pIC50: 4.00
